# PubChem BioAssay AID2685 (National Center for Advancing Translational Sciences (NCATS), 2010)
# Several values for one entry are separate records, joined by “and”; a condition that tells them apart may be missing. Identical values can stand only once. Some of the results follow. These are further read-outs of the screen, such as a control signal, another cell line or another target. No call is given for them. The list favours compounds with an active or inconclusive main result. The note in brackets gives the kind of curve behind each potency; many fits are weak. Where a SMILES comes first, the peptide text is derived from it. [ ]: non-standard residue; d: D form. The star is where a group is joined. ξ: configuration not given here. Cbz = O=C(OCc1ccccc1)*; OBn = c1ccc(CO*)cc1; ξP = O=C(O)C1CCCN1
# Experiment: qHTS Assay for Lipid Storage Modulators in Drosophila S3 Cells;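 on cell number change: cells counted by Cell Tracker Red CMTPX staining in the red channel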
# Conditions: BODIPY lipid droplet fluorescence, 18-24 h; for cell number change: measured here: cell count max response, cells fed with added oleic acid
# In short: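 Drosophila S3 cells got compounds at several concentrations plus oleic acid (400 uM solution). Laser-scanning cytometry with 488 nm excitation read lipid droplets at 500-530 nm and cells at 575-640 nm. Percent activity was relative to 20 uM Triacsin C.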
# [1] = measured here: lipid fluorescence (Fed channel) AC50, cells fed with added oleic acid
# [2] = measured here: cell number channel AC50, cells fed with added oleic acid
structure (smiles),measurement,setting,value
CNC(=O)CN(C)S(=O)(=O)c1ccc(F)cc1,AC50,[1],"23.1 µM [falling, partial curve]"
Cc1ccc(/C=N\NC(=O)c2cncc(Br)c2)o1,cell number change,,14.9%
same,AC50,[1],"10.3 µM [rising, partial curve]"
O=C(Nc1ccc(NC(=O)c2cccs2)cn1)c1ccco1,cell number change,,-19.8%
Cc1nc(N2CCN(c3ccc(Cl)cc3)CC2)[nH]c(=O)c1C,cell number change,,33.4%
O=C(NC1CCCCC1)C(c1ccncc1)N(C(=O)Cn1nnc(-c2cccs2)n1)C1CCCC1 (configuration not stated),cell number change,,14.3%
same,AC50,[1],"2.59 µM [rising, full curve, poor fit]"
COCCCN1C(=O)c2ccc(C(=O)OCC(=O)N3CCN(c4ccccc4)CC3)cc2C1=O,AC50,[1],"29.1 µM [rising, single point]"
COc1ccc(/C=C(/C(=O)NCc2ccccc2)c2ccccc2)cc1,cell number change,,3.33%
same,AC50,[1],"29.1 µM [falling, single point]"
C/C(=N\OC(=O)NC1CCCCC1)c1sc(-c2ccccc2)nc1C,cell number change,,-6%
same,AC50,[2],"1.16 µM [falling, full curve]"
same,AC50,[1],"1.16 µM [falling, full curve]"
COc1ccc(NC(=O)C2CCCCN2S(=O)(=O)c2ccc(F)cc2)cc1 (configuration not stated),cell number change,,32.4%
same,AC50,[2],"2.06 µM [rising, full curve]"
same,AC50,[1],"2.91 µM [rising, single point]"
O=C(CNC(=O)OCc1ccccc1)NCC(=O)N1CCCC1C(=O)OCc1ccccc1 (stereo not drawn) (Cbz-Gly-Gly-[ξP]-OBn),cell number change,,-21.3%
O=C(O)c1ccc(N/N=C/c2ccc(C(F)(F)F)cc2)cc1,cell number change,,30.6%
same,AC50,[2],"2.59 µM [rising, full curve, poor fit]"
same,AC50,[1],"4.61 µM [rising, full curve]"
COc1ccc(OC(=O)c2ccc(OC)c(S(=O)(=O)N3CCOCC3)c2)cc1,cell number change,,26.9%
same,AC50,[1],"23.1 µM [rising, single point]"
CC1(C(=O)NCc2ccccc2)Oc2ccccc2NC1=O (configuration not stated),AC50,[1],"18.4 µM [falling, partial curve]"
Cc1nc2ccc3[nH]snc3c2n1,cell number change,,18.5%
CC(C)NS(=O)(=O)c1ccc(NC(=S)NC(=O)c2cccc([N+](=O)[O-])c2)cc1,cell number change,,-16.8%
same,AC50,[1],"18.4 µM [falling, partial curve, poor fit]"
Cc1cccc(Oc2cc(NC(=O)Cn3cnc([N+](=O)[O-])n3)cc([N+](=O)[O-])c2)c1,cell number change,,5.07%
same,AC50,[1],"0.146 µM [rising, full curve]"
CC1CN(C(=O)COC(=O)c2ccc(Cl)c(S(=O)(=O)N3CCCCC3)c2)CC(C)O1 (configuration not stated),AC50,[2],"6.51 µM [falling, single point]"
O=C(COc1ccc(S(=O)(=O)N2CCOCC2)cc1Cl)NC1CCCCC1,cell number change,,-44.1%
same,AC50,[2],"9.2 µM [falling, partial curve, poor fit]"
same,AC50,[1],"1.16 µM [falling, full curve]"
CCN(CC)CCOc1ccc(/C(=C(/Cl)c2ccccc2)c2ccccc2)cc1,cell number change,,-55.8% and -20.8%
same,AC50,[2],"7.31 µM [falling, partial curve, poor fit]"
same,AC50,[1],"29.1 µM [falling, single point]"
C=CCNC(=S)N/N=C(\C)c1cccc(NC(C)=O)c1,AC50,[2],"0.164 µM [rising, partial curve]"
same,AC50,[1],"0.259 µM [rising, partial curve]"
CCN1C(=O)/C(=C/C=C2/Sc3ccc4ccccc4c3N2CCO)SC1=S,cell number change,,0.862%
Cc1ccc(NC(=O)c2cc(NC(=O)c3ccco3)ccc2N2CCOCC2)cc1,cell number change,,-9.18%
same,AC50,[1],"0.651 µM [rising, full curve]"
COC(=O)c1ccc([N+](=O)[O-])cc1N1C(=O)C2C3CCC(C3)C2C1=O (configuration not stated),cell number change,,-2.29%
Cc1cccn2cc(-c3cccc(NC(=O)c4cccs4)c3)nc12,cell number change,,-38.3%
same,AC50,[2],"18.4 µM [falling, single point]"
same,AC50,[1],"16.4 µM [falling, single point]"
Cc1nn(C(C)C(=O)N2CCc3ccccc3C2)c(=O)c2cc3occc3n12 (configuration not stated),cell number change,,-31.2%
same,AC50,[1],"1.03 µM [falling, full curve, poor fit]"
Cc1cccc(CSc2nc3nc(C)cc(C)n3n2)c1,cell number change,,13.6%
same,AC50,[1],"2.59 µM [rising, full curve]"
CC(C)(C)n1nnnc1C(c1cccs1)N(Cc1ccc(Cl)cc1)CC1CCCO1 (configuration not stated),cell number change,,-27.2%
same,AC50,[1],"2.31 µM [falling, full curve, poor fit]"
CC(C)Cc1nc2n[nH]c(N)c2c2c1CCCC2,cell number change,,57.7%
same,AC50,[2],"29.1 µM [rising, single point]"
same,AC50,[1],"2.59 µM [rising, single point]"
CCOC(=O)CC1ON(C)C(=O)N1c1ccc([N+](=O)[O-])cc1 (configuration not stated),cell number change,,0.34%
same,AC50,[2],"0.146 µM [falling, full curve, poor fit]"
same,AC50,[1],"0.411 µM [falling, partial curve, poor fit]"
COc1ccc(OC)c(NC(=O)C2CCN(C(=O)C3CC(=O)N(c4ccc(C)cc4)C3)CC2)c1 (configuration not stated),cell number change,,-2.56%
COc1cccc(-n2c(Cc3cc(=O)[nH]c(=O)[nH]3)nnc2SC(C)C)c1,cell number change,,-66.3%
same,AC50,[2],"18.4 µM [falling, single point]"
same,AC50,[1],"23.1 µM [falling, single point]"
COc1ccc(N(CC(=O)NC2CC3CCC2C3)S(=O)(=O)c2ccc(C)c([N+](=O)[O-])c2)cc1 (configuration not stated),cell number change,,-0.833%
same,AC50,[1],"0.411 µM [falling, partial curve]"
N#Cc1nc(-c2ccccc2F)oc1N1CCN(C(=O)c2ccco2)CC1,cell number change,,-26.7%
same,AC50,[1],"14.1 µM [falling, single point]"
COCCN(CC(=O)Nc1cccc(C)c1C)C(=O)c1cc2c(s1)CCC2,cell number change,,3.03%
same,AC50,[1],"14.6 µM [rising, partial curve, poor fit]"
Cc1ccc(Nc2nc(CSc3nnnn3-c3ccccc3)cs2)cc1,cell number change,,37.6%
same,AC50,[2],"0.517 µM [rising, partial curve, poor fit]"
same,AC50,[1],"6.51 µM [rising, single point]"
Cc1ccc(NC(=O)C(=O)NCC2CCCN2S(=O)(=O)c2cccs2)cc1C (configuration not stated),cell number change,,114%
same,AC50,[2],"6.51 µM [rising, partial curve]"
CCC(C)NC(=S)Nc1ccc(F)cc1 (configuration not stated),cell number change,,-16.3%
same,AC50,[1],"4.11 µM [falling, full curve, poor fit]"
Cc1cnc(C(=O)OCC(=O)Nc2ccc(Cl)cc2)cn1,cell number change,,-22.5%
same,AC50,[1],"29.1 µM [rising, single point]"
O=C(NCCc1ccccc1)C1CCN(Cc2cccc3ccccc23)CC1,cell number change,,-12.2%
same,AC50,[1],"29.1 µM [rising, single point]"
CC(=O)NC(Cc1ccccc1F)C(=O)NC1CCN(C(=O)Nc2ccc(C)cc2)CC1 (configuration not stated),cell number change,,5.13%
same,AC50,[2],"0.731 µM [rising, partial curve, poor fit]"
same,AC50,[1],"0.116 µM [falling, full curve]"
N#C/C(=C\c1ccc(N2CCOCC2)c([N+](=O)[O-])c1)c1nc2ccccc2[nH]1,cell number change,,39.6%
same,AC50,[2],"32.6 µM [rising, single point]"
same,AC50,[1],"0.651 µM [rising, single point]"
Cn1c2c(c(=O)n(C)c1=O)CN(CC1CCCO1)CN2 (configuration not stated),cell number change,,2.7%
same,AC50,[1],"0.146 µM [rising, full curve, poor fit]"
CCC(C)NC(=O)c1ccc(COc2ccccc2Cl)cc1 (configuration not stated),cell number change,,2.46%
same,AC50,[1],"4.61 µM [rising, full curve]"
CC(=O)NS(=O)(=O)c1ccc(NS(=O)(=O)c2ccccc2[N+](=O)[O-])cc1,cell number change,,-22.2%
same,AC50,[2],"0.116 µM [falling, full curve, poor fit]"
same,AC50,[1],"0.103 µM [falling, full curve, poor fit]"
Cc1cccc(Cn2c(SCC(=O)Nc3ccccc3)nc3c2c(=O)[nH]c(=O)n3C)c1,AC50,[1],"11.6 µM [rising, partial curve]"
Cc1ccccc1NC1=C(Cl)C(=O)OC1OC(C)C (configuration not stated),AC50,[1],"0.82 µM [falling, single point]"
Cc1oc(-c2ccccc2Cl)nc1CSCC(=O)NC1CC1,cell number change,,-15.8%
same,AC50,[1],"29.1 µM [falling, single point]"
COCCNC(=O)c1ccccc1NC(=O)C1COc2ccccc2O1 (configuration not stated),cell number change,,-19.2%
same,AC50,[1],"0.82 µM [rising, full curve, poor fit]"
CCCc1cc(=O)[nH]c(SCC(=O)OCc2ccccc2)n1,cell number change,,-1.53%
COc1ccc([C@@H]2[C@@H]3C(=O)N(C(C)(C)C)C(=O)[C@@H]3[C@]3(Cc4ccc(Cl)cc4)C(=O)N(c4ccc(Br)cc4)C(=O)N23)cc1,cell number change,,74.8%
same,AC50,[2],"18.4 µM [rising, partial curve]"
same,AC50,[1],"0.184 µM [falling, full curve, poor fit]"
O=C(N/N=C/c1ccncc1)c1cc(Br)ccc1OCc1ccccc1,cell number change,,-16.5%
COc1cccc(/C=C2\Sc3ccc(C(=O)NCC4CCCO4)cc3N(C)C2=O)c1 (configuration not stated),AC50,[1],"0.13 µM [falling, full curve, poor fit]"
CC1CCCC(C)N1CCCNC(=O)c1nn(C)c2c1CSc1ccccc1-2 (configuration not stated),cell number change,,38.3%
same,AC50,[2],"29.1 µM [rising, single point]"
same,AC50,[1],"23.1 µM [rising, single point]"
CCCCC(=O)Nc1cc(NC(=O)CC)ccc1Cl,cell number change,,50.6%
same,AC50,[2],"20.6 µM [rising, single point]"
same,AC50,[1],"29.1 µM [rising, single point]"
Cc1ccc(NC(=O)c2cccc3ccccc23)cc1,cell number change,,-8.14%
same,AC50,[1],"11.6 µM [falling, partial curve]"
CC(NC(=O)CNC(=O)c1ccco1)c1ccccc1 (configuration not stated),cell number change,,5.83%
same,AC50,[1],"0.00517 µM [rising, full curve, poor fit]"
